PubChem BioAssay AID686937 | Drosophila RNAi Screening Center | 2013
The deposit covers about 23,000 reagents; this is a random part of those that have a named target and a result. 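Reduced-secretion tags in replicate 1 do not always agree with the z-scores; no criterion for assigning the tags was given.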 A plus sign joins genes that one reagent is predicted to hit. Not stated in the record: the amount of reagent.

Assay: 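Genes whose loss weakens secretory pathway function in fly cells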 (primary screen)
Cell system: Drosophila S2 cells expressing secreted horseradish peroxidase
Reagents: long dsRNA against Drosophila genes
Timing: about 5.5 days (5 days dsRNA, then 12 h reporter induction)
Challenge: reporter expression induced after 5 days of dsRNA, read 12 h later; inducer not stated
Read-out: 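After 5 days of dsRNA and 12 h of reporter induction, medium peroxidase read by chemiluminescence and scored as per-plate z-score; higher values mean more reporter released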
Direction: z-score: higher = more reporter secreted into medium

no.	target	DRSC id	z-score, replicate 1	z-score, replicate 2	z-score, replicate 3	z-score, replicate 4	phenotype, replicate 1
1	dup	DRSC07088	-5.65	-6.05			reduced secretion
2	CG9029	DRSC03129	0.19	0.18			
3	Sox15	DRSC07555	-0.9	-0.82			
4	CG13630	DRSC14631	0.44	0.47			
5	Tcs6 + PIG-P	DRSC13742	-0.72	0.16			
6	Tcs6 + PIG-P	DRSC14893	0.26	0.03			
7	SREBP	DRSC11182	-5.42	-7.31			reduced secretion
8	ex	DRSC00817	0.19	0.47			
9	Ublcp1	DRSC14149	-0.31	-0.49			
10	CG9616	DRSC16518	0.52	0.12			
11	alphaTub84D	DRSC12623	-1.21	-2.57			
12	UQCR-C2	DRSC10405	-1.23	-0.22			
13	MTA1-like	DRSC12382	0.34	-0.22			
14	MTA1-like	DRSC22022	-0.99	-0.08			
15	Rap1	DRSC08686	0.07	0.06			
16	TORIP	DRSC10104	0.19	0.16			
17	CG30281	DRSC04528	0.29	0.35			
18	CG13670	DRSC10029	0.49	0.63			
19	Irk3	DRSC02047	0.49	0.55			
20	Usp16-45	DRSC18352	0.29	0.31			
21	msl-1	DRSC03573	0.33	0.23			
22	Fur2	DRSC19817	-0.14	0.06			
23	CG6511	DRSC10656	0.11	0.11			
24	Pmvk	DRSC02032	0.27	0.34			
25	CG8141	DRSC16387	-0.06	0.67			
26	CG32720	DRSC17529	0.15	0.56			
27	Muc11A	DRSC19498	0.21	0.28	0.36	0.33	
28	CR18275 + CR18166 + CG32817	DRSC17249	0.28	0.14			
29	Cc2d2a	DRSC06750	0.33	0.22			
30	Cc2d2a	DRSC06779	0.28	0.33			
31	fws	DRSC02969	-0.08	-0.02			
32	d4	DRSC04881	0.5	0.42			
33	d4	DRSC22674	-0.25	-0.14			

Records listed so far whose target name begins with S or s:
target	DRSC id	z-score, replicate 1	z-score, replicate 2	z-score, replicate 3	z-score, replicate 4	phenotype, replicate 1
Sox15	DRSC07555	-0.9	-0.82			
SREBP	DRSC11182	-5.42	-7.31			reduced secretion
